PMC10924340

Chains of the proteins cited; added tags and fusions are not shown.
UniProt O43255: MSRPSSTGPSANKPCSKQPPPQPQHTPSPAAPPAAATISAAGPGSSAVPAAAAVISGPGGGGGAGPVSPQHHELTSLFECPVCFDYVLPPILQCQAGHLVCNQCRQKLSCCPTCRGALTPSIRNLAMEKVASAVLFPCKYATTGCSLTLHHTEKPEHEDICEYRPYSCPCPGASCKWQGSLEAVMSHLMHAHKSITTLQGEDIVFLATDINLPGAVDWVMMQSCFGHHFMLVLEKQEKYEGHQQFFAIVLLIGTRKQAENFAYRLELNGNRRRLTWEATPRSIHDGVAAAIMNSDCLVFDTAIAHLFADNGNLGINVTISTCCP

Target: T1, Flag-LATS2 (large tumor suppressor kinase 2) (UniProt Q9NRM7)
T1 sequence: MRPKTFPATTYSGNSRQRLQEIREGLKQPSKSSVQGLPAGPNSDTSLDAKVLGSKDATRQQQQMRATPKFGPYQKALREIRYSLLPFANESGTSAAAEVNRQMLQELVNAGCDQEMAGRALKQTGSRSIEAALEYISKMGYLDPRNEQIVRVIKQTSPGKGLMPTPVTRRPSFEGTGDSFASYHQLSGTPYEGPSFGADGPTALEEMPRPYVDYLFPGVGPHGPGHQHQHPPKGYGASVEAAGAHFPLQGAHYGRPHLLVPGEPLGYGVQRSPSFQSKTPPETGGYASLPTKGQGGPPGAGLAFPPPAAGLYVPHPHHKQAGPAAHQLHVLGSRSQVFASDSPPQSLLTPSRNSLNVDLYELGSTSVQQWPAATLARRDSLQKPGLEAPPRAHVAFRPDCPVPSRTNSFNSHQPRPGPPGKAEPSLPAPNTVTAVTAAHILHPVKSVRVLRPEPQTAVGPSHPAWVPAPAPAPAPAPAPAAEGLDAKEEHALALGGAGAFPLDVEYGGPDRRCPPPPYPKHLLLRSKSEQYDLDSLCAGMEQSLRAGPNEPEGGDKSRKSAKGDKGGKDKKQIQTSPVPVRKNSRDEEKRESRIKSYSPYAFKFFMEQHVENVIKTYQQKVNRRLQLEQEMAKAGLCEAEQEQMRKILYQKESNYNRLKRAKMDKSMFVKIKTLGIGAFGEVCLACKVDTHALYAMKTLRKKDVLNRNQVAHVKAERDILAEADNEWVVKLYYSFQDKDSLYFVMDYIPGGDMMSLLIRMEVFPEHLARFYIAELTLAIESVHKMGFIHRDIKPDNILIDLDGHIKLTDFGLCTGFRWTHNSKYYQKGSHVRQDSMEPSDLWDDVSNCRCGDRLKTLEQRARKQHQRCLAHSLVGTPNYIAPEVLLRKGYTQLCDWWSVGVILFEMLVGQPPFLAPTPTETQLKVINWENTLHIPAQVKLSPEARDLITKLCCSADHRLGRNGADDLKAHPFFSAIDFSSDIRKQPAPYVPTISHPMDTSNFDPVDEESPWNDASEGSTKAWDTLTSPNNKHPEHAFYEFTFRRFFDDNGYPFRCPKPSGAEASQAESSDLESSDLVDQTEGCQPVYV
Assay: affinity purification with mass spectrometry; IP-MS of LATS2: cells transfected with Flag-LATS2 and HA-Ub, lysed in IP buffer after 48 h, mixed with pre-incubated beads for 16 h, washed three times, beads analysed by MS; methods name HEK-293T, results name HK-2 cells

binding: binds
Substance: SIAH2 (seven in absentia homolog 2), E3 ligase (from UniProt O43255 1-324) (enzyme)

Results are given in words; binding and its absence hold for the method and conditions named. In cells and extracts the contact can be indirect. These calls come from enrichment with a bait or labelling near it, and not all partners need be listed. Tags and fused reporters may be left off the sequences shown.
